Among all 220,000 compounds or so, about 2,400 (1.1%) were called active. Inconclusive means that the source gave no clear call. Such entries were picked first, then a sample of the others. Calls come from the whole dose curve; as a rule, active = well fitted inhibition curve with a large enough effect; inconclusive = small, poorly fitted or top-dose-only effect, or effect the other way; inactive = no such curve, though single readings can be large or run the other way. A potency beside an inconclusive call is a rough fit, not a confirmed value.
assay: qHTS Multiplex Assay to Identify Dual Action Probes in a Cell Model of Huntington: Aggregate Formation (GFP); settings: PC12 HttQ103-GFP aggregates, Acumen cytometry, 40 h; activity change, negative = inhibition: at 46.1 µM (top of the series) unless noted; note: nearly all actives have a fitted effect of over 60% in size
Summary of the method: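 Quantitative HTS on tebufenozide-induced (100 nM) PC12 cells stably expressing polyQ103 Huntingtin exon 1–GFP. Reduction of bright GFP aggregates, detected by laser scanning cytometry after lysis, identified actives across the titration.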
% is set by controls: 0 for no effect and ±100 for the full control effect; potency is the fitted concentration of half-maximal effect.

Row | Compound | Potency | activity change, negative = inhibition
1 | COc1ccc(CNC(=O)CCSCc2cccc(Cl)c2)c(OC)c1 | inactive | 
2 | Cc1cccc(NC(=S)NNC(=O)c2csc3c2CCCC3)c1 | inconclusive: 17.8 µM [inhibitor, partial curve] | 
3 | CC(=O)Nc1nc2ccccc2n1CCOc1ccccc1 | inactive | 
4 | COc1ccc(CCN=C(N)NS(=O)(=O)c2ccc(C)cc2)cc1 | inconclusive: 2.82 µM [activator, partial curve, poor fit] | 
5 | Cc1cc2c(cc(C(=O)OCC(=O)NCc3cccs3)n2C(C)C)o1 | inconclusive: 35.5 µM [activator, single point] | 
6 | CCN(CC)c1ccc(/C=C(/C#N)c2nc3ccccc3[nH]2)c(OC(C)C)c1 | inconclusive: 3.16 µM [activator, partial curve] | 
7 | COc1ccc(S(=O)(=O)Nc2cccc(-c3ccc4nncn4n3)c2)cc1F | inconclusive: 15.8 µM [activator, single point] | 
8 | Cc1ccc(C(=O)N2C3C=CC(C3)C2(C(F)(F)F)C(F)(F)F)cc1 (stereo unspecified) | inconclusive: 31.6 µM [activator, single point] | 
9 | CC1(C)C(C=C(Cl)Cl)C1C(=O)N(Cc1ccccc1Cl)C1CCS(=O)(=O)C1 (stereo unspecified) | inconclusive: 7.08 µM [inhibitor, full curve] | 
10 | CCOC(=O)CN1C(=O)COc2ccc(Cl)cc21 | inconclusive: 2.51 µM [inhibitor, partial curve, poor fit] | 
11 | CC(=O)Oc1cc(C)c(OC(C)=O)c2ccccc12 | inconclusive: 28.2 µM [inhibitor, partial curve, poor fit] | 
12 | CC[n+]1c(/C=C/c2c[nH]c3ccccc23)ccc2cc(C)ccc21 | active: 8.91 µM | 
13 | CCOC(=O)N=Nc1c2ccccc2c2nc3no[nH]c3nc12 | active: 1.26 µM | 
14 | CCCOc1ccc(OCC(=O)c2[nH]c(C)c(C(C)=O)c2C)cc1 | active: 8.91 µM | 
15 | O=C(CC1C(=O)NCCN1Cc1c(F)cccc1Cl)NCCCn1ccnc1 (stereo unspecified) |  | inactive: 6.86% [at 9.22 µM]
16 | C=CCNC(=S)NNc1nc2c(c(=O)[nH]1)C1(CCCC1)Cc1ccccc1-2 | inactive | 
17 | Cc1ccc(N/C(N)=N/c2nc(CSc3nnc(C)s3)cc(=O)[nH]2)c(C)c1 | inconclusive: 35.5 µM [activator, single point] | 
18 | COc1ccc(CNC(=O)CSc2ccsc2[N+](=O)[O-])cc1 | inactive | 
19 | CCCCC(=O)NNC(=S)NC(=O)C(c1ccccc1)c1ccccc1 | inconclusive: 35.5 µM [inhibitor, partial curve, poor fit] | 
20 | CCn1c(C(=O)N2CCCC(C(=O)NCCCc3ccccc3)C2)cc2sccc21 (stereo unspecified) | inconclusive: 0.708 µM [inhibitor, single point] | 
21 | CC[N+](CC)(CCNC(=O)C(=O)NCC[N+](CC)(CC)Cc1ccccc1Cl)Cc1ccccc1Cl | inactive | 
22 | Cc1ccccc1C(=O)Oc1ccc(Br)cc1C(=S)N1CCCC1 | inactive | 
23 | O=c1[nH]nc(CNc2ccc(OC(F)(F)F)cc2)c2ccccc12 | inconclusive: 7.94 µM [inhibitor, partial curve] | 

Shown as tab-separated lines: 2 of the compounds above
Row	Compound	Potency	activity change, negative = inhibition
20	CCn1c(C(=O)N2CCCC(C(=O)NCCCc3ccccc3)C2)cc2sccc21 (stereo unspecified)	inconclusive: 0.708 µM [inhibitor, single point]	
21	CC[N+](CC)(CCNC(=O)C(=O)NCC[N+](CC)(CC)Cc1ccccc1Cl)Cc1ccccc1Cl	inactive	

Next compounds follow:

Row | Compound | Potency | activity change, negative = inhibition
24 | Nc1nc(SCC(=O)O)[nH]c(=O)c1NC(=O)c1ccccc1F | inconclusive: 0.562 µM [activator, full curve, poor fit] | 
25 | O=C(Nc1ccccc1N1CCOCC1)c1cc(-c2ccco2)nc2ccccc12 | inconclusive: 35.5 µM [inhibitor, single point] | 
26 | OC1(c2ccc(Cl)cc2)CN(c2ccccc2)C2=[N+]1CCS2 (stereo unspecified) | inactive | 
27 | Clc1ccc(Nc2ncnc3c2cnn3-c2ccccc2)cc1 | active: 3.55 µM | 
28 | CN1/C(=C/c2cc[n+](C)c3ccccc23)C=Cc2ccccc21 | active: 2.51 µM | 
29 | Oc1cc(Cc2ccccc2)cnc1CN1CCCCC1 | inconclusive: 15.8 µM [inhibitor, single point] | 
30 | O=C(Nc1ccc2c(c1)OCO2)NC1CCN(Cc2ccccc2)CC1 | inconclusive: 5.62 µM [inhibitor, single point] | 
31 | Cc1nonc1OC(C)CNc1ccc([N+](=O)[O-])cc1 (stereo unspecified) | inconclusive: 35.5 µM [inhibitor, single point] | 
32 | C/C(=N/Nc1ccc(C)cc1)C1(C)N(O)C(C)(C)C(c2ccco2)=[N+]1[O-] (stereo unspecified) | inactive | 
33 | CCOc1ccc2c(c1)n([O-])c1c([n+]2=O)CCCC1 | inconclusive: 35.5 µM [inhibitor, single point] | 
34 | CC12CCC(C(=O)Nc3nc4ccc(Br)cc4s3)(OC1=O)C2(C)C (stereo unspecified) | inconclusive: 35.5 µM [inhibitor, single point] | 
35 | O=S(=O)(c1cccc(C(F)(F)F)c1)N1CCC(c2cc(-c3cccc4ccccc34)n[nH]2)CC1 | active: 1 µM | 
36 | O=c1cc(O)c2sc(Nc3ccc(F)c(Cl)c3)nc2[nH]1 | inactive | 
37 | O=C(Nc1cccc(Cl)c1)c1ccc(F)c(S(=O)(=O)N2CCN(c3ccccn3)CC2)c1 | inconclusive: 31.6 µM [inhibitor, single point] | 
38 | O=c1c2ccccc2c(C=NCCc2ccccc2)c(O)n1Cc1ccccc1 | inconclusive: 17.8 µM [inhibitor, single point] | 
39 | O=C(NC(=S)N1CCN(c2ccc([N+](=O)[O-])cc2)CC1)c1ccccc1 | inconclusive: 35.5 µM [activator, partial curve] | 
40 | O=C(CCl)Nc1ccc2c(c1)OCO2 | inconclusive: 35.5 µM [inhibitor, single point] | 
41 | Cc1ccc(-c2ccc(/C=C/C(=O)c3ccccc3)o2)cc1 | inconclusive: 35.5 µM [activator, single point] | 
42 | CC(C)(C)C1CCC2(CC1)C(C#N)=C(SCC(=O)Nc1ccccc1)NC(=O)C2C#N (stereo unspecified) | inconclusive: 3.55 µM [inhibitor, full curve] | 
43 | Cc1ccc(C)c(NS(=O)(=O)c2cc(C(=O)NCCSC3CCCCC3)ccc2C)c1 | inconclusive: 35.5 µM [inhibitor, single point] | 
44 | c1ccc2c(c1)CCC[C@@H]2C1=NCCN1 | inactive | 
45 | Cc1ccc(NC(=O)CSc2ncc3ccccn23)cc1C | inactive | 
46 | Cc1ccsc1/C=N/Nc1ncc(Cl)cc1Cl | inconclusive: 35.5 µM [inhibitor, single point] | 

From PubChem BioAssay AID1688 (National Center for Advancing Translational Sciences (NCATS), 2009)
